Assay results reported in the supplement of paper PMC5949888.
Most values lie at the floor of the assay. Slopes are relative: functional sequences can read slightly below zero.

tested on: Saccharomyces cerevisiae PS128 hsf1 delta, HSF1(1-493) fusion; experiment: growth estimate (transactivation domain function in HSF1 fusion, heat-shock survival) (a.u. (slope of normalised read count over time)); higher = stronger growth at 37°C, i.e. more transactivation activity; details: library: random library

Substance	growth estimate
LLLESSVETSCGSQF	< -0.25
LLLGRHLKAVLLRRSRRTSV	-0.181
LLLHSRLYA	< -0.25
LLLNHQVICVPDCSRLAHLI	-0.229
LLLNRR	< -0.25
LLNKC	< -0.25
LLNVPLETCCRRPRYPFCEA	< -0.25
LLPIVRVHIGDIGDTAGGRV	< -0.25
LLPKP	< -0.25
LLPSAGTKPLAHSTPRRCQC	< -0.25
LLPVISACTDRLVAITGRAV	< -0.25
LLRCRCSVETKTRDYRPLAR	< -0.25
LLRDGNRLPYDPMRWRLTTT	< -0.25
LLREALRE	< -0.25
LLRIDI	< -0.25
LLRINAQARDIAGQH	< -0.25
LLRMPVGLVSVLHGID	< -0.25
LLRVN	< -0.25
LLRVV	< -0.25
LLRWSPRI	< -0.25
LLRYGSDQMLES	< -0.25
LLSGYVVASP	< -0.25
LLSKIGVNNPVGKGKRIYPF	-0.245
LLSNPTSCFGSHAHLGS	-0.208

3 entries from above, field by field.
LLLGRHLKAVLLRRSRRTSV
  growth estimate: -0.181
LLLNRR
  growth estimate: < -0.25
LLRCRCSVETKTRDYRPLAR
  growth estimate: < -0.25

Additional records follow.

Substance	growth estimate
LLSQDLKTY	-0.243
LLSRKGD	< -0.25
LLSRRRRSRCDPNRLWAQLI	< -0.25
LLSSMHSGVNRWSETPTVRD	< -0.25
LLSSQV	< -0.25
LLSVCIFTGAHGSGRIHPVS	< -0.25
LLSVHHFISAL	< -0.25
LLTLPYVVQDRGNRRASAVE	< -0.25
LLV	< -0.25
LLVDAYKWLRILDCRKVLVA	< -0.25
LLVTDDRFKSAPTELSRPPG	< -0.25
LLVWSS	< -0.25
LLWILLNDGRAILSHRPVYR	< -0.25
LLWSGCGYSPARVEDR	< -0.25
LLWSIRSCLGAPSVELALSR	< -0.25
LLWVSTRVHTRKVNMTLKQH	< -0.25
LLYSNPFVVG	-0.246
LMARQVT	< -0.25
LMCPLAETSPAARRGNRTPA	< -0.25
LMD	-0.243
LMEGEAWGRGNHWYIVPGCH	< -0.25
LMELSRSTYRPCATLLVFY	< -0.25
LMGVRYGIGRGA	< -0.25
LMGVVRRPRVQLYR	0.183

Substance	growth estimate
LMIRYRGDPALLVECKARRA	0.375
LMLAVGVVKHWSRVRLGR	< -0.25
LMPAAWRGLVLRFGLRSMSG	< -0.25
LMRAVARERTRSEVSLTIWL	< -0.25
LMRQDPVINGPGDRGRLRSA	-0.223
LMSGRHVVFKEYSNLSPLLY	< -0.25
LMSLRRAYRPVEILML	< -0.25
LMVALVEAT	< -0.25
LNADI	< -0.25
LNALEVIRELTRKVSFWATP	< -0.25
LNAMQSFLSTK	< -0.25
LNCDNTRRTWENCGSVCAAS	< -0.25
LNCSMGV	< -0.25
LNCVSSFEYSTEDSPRSWH	-0.0345
LNDKLLRPSGLAVSGPEC	< -0.25
LNDPRGTLSF	< -0.25
LNFGRLIWDHPARPVYGKKV	< -0.25
LNGLECC	< -0.25
LNGPTYIIPVAVRGNLSAFQ	< -0.25
LNGRTKLSIRNGPNQLRRDI	< -0.25
LNGSNAREPDALKGCRSPVC	< -0.25
LNHETAFSRGLLTAEIGKG	< -0.25
LNISYLMTWMRFGSTS	< -0.25
LNKELQ	-0.24
